The text below walks through data of paper PMC10374912 (Nature Communications, 2023).

No constants are given. Whether binding was seen depends on the method and setting. In cells and extracts the contact can be indirect. Some results given as binding are weak or reduced against the parent protein; the word gives no strength.

Experiment [1] addresses 6XHis-3XFlag-tagged Cwt1 (C. albicans) (UniProt Q59M50). Briefly: co-IP; C. albicans whole cell lysates from YPGal cultures before and after AA or KCN treatment; anti-Flag or anti-HA antibody, Protein G Dynabeads; F300 buffer (50 mM HEPES-KOH pH 7.2, 300 mM KOAc, 10% glycerol) with 0.02% IGEPAL-CA630; Benzonase-treated; immunoblot. (In western blotting, separated proteins are transferred to a membrane and probed.)

For experiment [2], the target named is Zcf11-6XHis-3XFlag (C. albicans). The experiment is described as above.

“3XHA-tagged Zcf2 (from UniProt A0A1D8PDI4 1-775)”: the binding result in experiment [1] was “no binding”.

B1: Cwt1-3XHA (protein, UniProt Q59M50 1-578)
chain: MSTMSTQKANSSTPGETDSSSSLPPPEITEPTYKKPEKSTKRRKKKLEIACVYCRRSHMICDESRPCQRCIKRGIAHLCYDEPSNSRQRKKAAALRKTQSEGAPMVTSPITLPLTGSTGNQSPLPLPPLQASQSDIRSAPKTENSLQFSQPALHQQQMQENPQGASQSVHTNNTHIYSSQNQQQQPQHQQQLQQQQPQPQPQSRLIKNSVLSQTLPYNQQPFFYSEHANSEFSSLNDFLSMIDDPELVNGALNDDTDGLLNFGVGNNNNSGGSNSNINNTHNNNNNGFSISGGNSTTNLNAVLAYSPNSNLFPPTFGNEADSTQIQSQQQQPELTQQPPALNPVKVEPQAEKTEQQPVISDSARDKFFLTAADPTTEISPEERLKQVIKAKLEAGLLQPYNYAKGYARLQRYMDNYMNISSRQRILKPLSIFRPAFRAIARTLKDVDLVLVEESFERMLLDYDRVFTAMAIPACLWRRTGEIYRGNKEFASLVGVTTDDLKDGKLAIYELMSEESAVNFWEKYGAIAFDKGQKAVLTSCNLRTRDGIKRKSCCFSFTIRRDRYNIPSCIVGNFIPIDP
With B1, the binding entry in experiment [2] was “binds”.
